# Results are given in words; binding and its absence hold for the method and conditions named. In cells and extracts the contact can be indirect. Some results given as binding are weak or reduced against the parent protein; the word gives no strength. For some assays here: Tags and fused reporters may be left off the sequences shown.
# Chains of the proteins cited; added tags and fusions are not shown. Lines headed by an entry give the natural chain unless they say otherwise; changes in a name come on top. A line that says so, or that is headed by a name, gives the form on record, which may keep a tag or linker. Residues count along the entry.
# UniProt Q13873: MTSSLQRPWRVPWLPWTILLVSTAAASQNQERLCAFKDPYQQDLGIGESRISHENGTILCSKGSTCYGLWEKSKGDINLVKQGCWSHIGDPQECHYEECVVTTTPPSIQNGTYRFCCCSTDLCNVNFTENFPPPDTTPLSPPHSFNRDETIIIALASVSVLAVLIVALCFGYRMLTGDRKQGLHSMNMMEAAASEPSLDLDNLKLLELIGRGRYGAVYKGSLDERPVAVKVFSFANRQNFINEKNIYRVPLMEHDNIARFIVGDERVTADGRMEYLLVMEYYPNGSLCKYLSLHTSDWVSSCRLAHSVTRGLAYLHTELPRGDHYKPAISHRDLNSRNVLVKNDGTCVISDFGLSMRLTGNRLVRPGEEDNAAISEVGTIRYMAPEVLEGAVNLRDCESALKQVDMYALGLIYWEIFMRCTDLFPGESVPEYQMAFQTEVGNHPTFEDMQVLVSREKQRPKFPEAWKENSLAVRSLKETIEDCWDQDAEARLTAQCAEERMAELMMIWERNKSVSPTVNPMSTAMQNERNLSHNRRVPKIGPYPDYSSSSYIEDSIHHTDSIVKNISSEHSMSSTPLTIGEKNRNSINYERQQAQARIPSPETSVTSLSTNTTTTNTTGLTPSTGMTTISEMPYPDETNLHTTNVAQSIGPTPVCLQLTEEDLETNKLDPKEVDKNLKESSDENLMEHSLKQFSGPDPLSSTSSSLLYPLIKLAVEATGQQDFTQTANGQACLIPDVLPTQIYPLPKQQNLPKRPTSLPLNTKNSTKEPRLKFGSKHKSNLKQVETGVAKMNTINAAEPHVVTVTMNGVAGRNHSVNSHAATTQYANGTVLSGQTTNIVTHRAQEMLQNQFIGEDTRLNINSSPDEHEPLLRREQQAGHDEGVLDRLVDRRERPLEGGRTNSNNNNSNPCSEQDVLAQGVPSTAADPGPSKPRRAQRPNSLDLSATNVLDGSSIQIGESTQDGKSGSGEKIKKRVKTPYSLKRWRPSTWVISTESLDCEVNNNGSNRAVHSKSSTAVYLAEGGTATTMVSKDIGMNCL
# Myc-tagged full length BMPR2: residues 27-1038 of Q13873
# Myc-BMPR2-S532X: residues 27-531 of Q13873
# UniProt P49407: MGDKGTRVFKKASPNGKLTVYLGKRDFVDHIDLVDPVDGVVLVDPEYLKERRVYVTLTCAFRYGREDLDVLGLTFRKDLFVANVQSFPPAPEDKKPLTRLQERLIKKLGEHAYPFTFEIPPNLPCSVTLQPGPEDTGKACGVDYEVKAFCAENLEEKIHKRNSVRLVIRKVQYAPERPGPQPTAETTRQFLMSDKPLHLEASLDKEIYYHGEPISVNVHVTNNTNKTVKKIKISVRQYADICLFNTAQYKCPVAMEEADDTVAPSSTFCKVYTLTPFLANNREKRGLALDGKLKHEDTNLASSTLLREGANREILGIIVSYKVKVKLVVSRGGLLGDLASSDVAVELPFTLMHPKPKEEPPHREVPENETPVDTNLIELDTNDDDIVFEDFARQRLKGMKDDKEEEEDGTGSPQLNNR
# UniProt P29066: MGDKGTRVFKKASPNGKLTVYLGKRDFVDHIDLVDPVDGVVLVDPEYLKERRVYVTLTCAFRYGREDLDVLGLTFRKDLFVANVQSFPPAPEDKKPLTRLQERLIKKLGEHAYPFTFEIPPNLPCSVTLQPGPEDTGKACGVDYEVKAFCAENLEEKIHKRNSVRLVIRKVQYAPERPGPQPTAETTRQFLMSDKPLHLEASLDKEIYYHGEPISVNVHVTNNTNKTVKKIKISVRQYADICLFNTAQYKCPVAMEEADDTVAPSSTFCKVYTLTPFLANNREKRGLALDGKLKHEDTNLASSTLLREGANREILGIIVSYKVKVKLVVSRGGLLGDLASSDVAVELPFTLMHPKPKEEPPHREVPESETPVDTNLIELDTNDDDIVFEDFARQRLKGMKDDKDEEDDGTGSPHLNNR
# UniProt P29067: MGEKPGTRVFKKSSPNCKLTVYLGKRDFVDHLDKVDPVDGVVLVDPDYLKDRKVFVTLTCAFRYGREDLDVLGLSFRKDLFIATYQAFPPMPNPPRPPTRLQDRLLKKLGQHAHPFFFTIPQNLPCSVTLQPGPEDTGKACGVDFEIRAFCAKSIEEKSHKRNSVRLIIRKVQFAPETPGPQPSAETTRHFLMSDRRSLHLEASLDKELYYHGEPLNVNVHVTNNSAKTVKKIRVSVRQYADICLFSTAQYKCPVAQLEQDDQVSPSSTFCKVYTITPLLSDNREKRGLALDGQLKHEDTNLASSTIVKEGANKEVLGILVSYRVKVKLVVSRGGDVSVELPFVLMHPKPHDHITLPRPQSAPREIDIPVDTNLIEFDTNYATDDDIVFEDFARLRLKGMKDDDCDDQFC
# Tests used:
# [1] = molecular target: Myc-tagged full length BMPR2 (UniProt Q13873); assay: co-IP; HEK293 cells cotransfected with Myc-BMPR2 or Myc-BMPR2-S532X and tagged β-arrestin1/2; lysates incubated overnight at 4°C with anti-Myc sepharose (Pierce Crosslink IP Kit), eluted with 0.5 mg/ml c-Myc peptide, immunoblot; no ligand (constitutive)
# Myc-BMPR2-S532X = Myc-BMPR2-S532X (UniProt Q13873); assay: as above
# GFP-tagged β-arrestin1 = GFP-tagged β-arrestin1 (UniProt P49407); assay: co-IP; HEK293 cells cotransfected with GFP-β-arrestin1 (or GFP control) and Myc-IFT81; NP-40 lysates precipitated with mouse anti-GFP antibody and protein A/G agarose at 4°C; blot with anti-Myc and anti-GFP
binding [1],binding (Myc-BMPR2-S532X),binding (GFP-tagged β-arrestin1),Molecule
binds,binds,–,"β-arrestin1 (HA- or FLAG-tagged, overexpressed) (from UniProt P29066 1-418)"
binds,binds,–,"β-arrestin2 (HA- or FLAG-tagged, overexpressed) (from UniProt P29067 1-410)"
–,–,binds,"Myc-tagged IFT81 (protein, UniProt Q8WYA0 1-676) MSDQIKFIMDSLNKEPFRKNYNLITFDSLEPMQLLQVLSDVLAEIDPKQLVDIREEMPEQTAKRMLSLLGILKYKPSGNATDMSTFRQGLVIGSKPVIYPVLHWLLQRTNELKKRAYLARFLIKLEVPSEFLQDETVADTNKQYEELMEAFKTLHKEYEQLKISGFSTAEIRKDISAMEEEKDQLIKRVEHLKKRVETAQNHQWMLKIARQLRVEKEREEYLAQQKQEQKNQLFHAVQRLQRVQNQLKSMRQAAADAKPESLMKRLEEEIKFNLYMVTEKFPKELENKKKELHFLQKVVSEPAMGHSDLLELESKINEINTEINQLIEKKMMRNEPIEGKLSLYRQQASIISRKKEAKAEELQEAKEKLASLEREASVKRNQTREFDGTEVLKGDEFKRYVNKLRSKSTVFKKKHQIIAELKAEFGLLQRTEELLKQRHENIQQQLQTMEEKKGISGYSYTQEELERVSALKSEVDEMKGRTLDDMSEMVKKLYSLVSEKKSALASVIKELRQLRQKYQELTQECDEKKSQYDSCAAGLESNRSKLEQEVRRLREECLQEESRYHYTNCMIKNLEVQLRRATDEMKAYISSDQQEKRKAIREQYTKNTAEQENLGKKLREKQKVIRESHGPNMKQAKMWRDLEQLMECKKQCFLKQQSQTSIGQVIQEGGEDRLIL"

# From publication PMC9751664
